Data reported in the supplement of paper PMC9454738.
Where a name gives a salt, the structure may show the parent alone. ± gives the standard deviation of the averaged measurements. The list shows a part of the results. Single values are uncertain here, since repeats match poorly.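 Triple-negative MDA-MB-231 breast cancer cells and their brain-metastatic MDA-MB-231BRM derivative each stably expressed empty vector, full-length GLI1 or truncated tGLI1. CellTiter-Blue measured viability at 48 h relative to 1% DMSO vehicle. Compounds reducing viability 20% more in tGLI1 cells than in vector and GLI1 cells counted as tGLI1-selective.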

Experiments:
Assay in all cases: cell viability relative to vehicle (DMSO) control (fraction); higher = more viable cells (less growth inhibition)
Conditions in all cases: treatment time 48 h
[1] = tested on: MDA-MB-231 GLI1
[2] = tested on: MDA-MB-231 Vector
[3] = tested on: MDA-MB-231 tGLI1
[4] = tested on: MDA-MB-231BRM GLI1
[5] = tested on: MDA-MB-231BRM Vector
[6] = tested on: MDA-MB-231BRM tGLI1

SMILES	cell viability ([1]; 0.05 µM)	cell viability ([1]; 0.5 µM)	cell viability ([1]; 5 µM)	cell viability ([2]; 0.05 µM)	cell viability ([2]; 0.5 µM)	cell viability ([2]; 5 µM)	cell viability ([3]; 0.05 µM)	cell viability ([3]; 0.5 µM)	cell viability ([3]; 5 µM)	cell viability ([4]; 0.05 µM)	cell viability ([4]; 0.5 µM)	cell viability ([4]; 5 µM)	cell viability ([5]; 0.05 µM)	cell viability ([5]; 0.5 µM)	cell viability ([5]; 5 µM)	cell viability ([6]; 0.05 µM)	cell viability ([6]; 0.5 µM)	cell viability ([6]; 5 µM)
Cc1cc(C)c(/C=C2\C(=O)Nc3ccccc32)[nH]1 [Semaxanib (SU5416)]	1.06	1.09	1.03	1.2	1.25	1.14	1.18	1.03	0.928	0.978	0.997	0.911	0.989	0.969	0.923	1.01	1.03	0.958
OCCn1cc(-c2ccc3c(c2)CC/C3=N\O)c(-c2ccncc2)n1	1.52	1.48	1.2	1.41	1.15	0.698	1.25	1.35	0.882	0.974	1.1	0.979	0.97	1.04	1.04	1.03	0.974	0.989
CC(C)[C@H](CO)Nc1nc(Nc2cccc(Cl)c2)c2ncn(C(C)C)c2n1 [Purvalanol A]	1.05	1.83	0.599	0.694	0.727	0.229	0.668	0.861	0.236	0.561	0.427	0.353	0.551	0.462	0.327	0.725	0.692	0.583
Cc1cnc(NC(=O)Nc2cc(Br)c(C)cc2OC[C@@H]2CNCCO2)cn1	1.18	1.23	0.115	1.27	1.1	0.292	1.29	1.26	0.164	1.01	1.13	1.12	1.04	1.06	1.14	1.05	1.14	1.05
CC(=O)Nc1cccc(-n2c(=O)n(C3CC3)c(=O)c3c(Nc4ccc(I)cc4F)n(C)c(=O)c(C)c32)c1	0.655	0.75	0.64	0.588	0.58	0.692	0.703	0.591	0.55	1.07	1.13	0.959	1.12	1.14	0.885	1.12	0.983	0.777
C[C@@H]1COCCN1c1cc(C2([S@](C)(=N)=O)CC2)nc(-c2cc[nH]c3nccc2-3)n1	2.2	2.58	0.637	1.37	1.07	0.283	1.39	0.681	0.349	0.843	0.836	0.674	0.9	0.79	0.664	1.19	1.14	1.08
Cc1ccc(Nc2nccc(N(C)c3ccc4c(C)n(C)nc4c3)n2)cc1S(N)(=O)=O [Pazopanib]	0.664 ± 0.98	1.19 ± 0.51	0.82 ± 0.054	1.28 ± 0.14	1.22 ± 0.37	0.983 ± 0.14	1.33 ± 0.037	1.09 ± 0.38	1.06 ± 0.013	1.02 ± 0.016	0.96 ± 0.061	0.95 ± 0.11	1.03 ± 0.11	0.999 ± 0.016	0.973 ± 0.058	0.9593 ± 0.0033	0.976 ± 0.045	0.949 ± 0.1
CN1CC[C@H](c2c(O)cc(O)c3c(=O)cc(-c4ccccc4Cl)oc23)[C@H](O)C1 [Flavopiridol HCl]	0.43	0.621	0.156	0.568	0.276	0.299	0.506	0.182	0.189	1.14	1.06	1.07	1.09	1.08	1.04	0.958	1.01	0.962
COc1cc(Nc2ncc(F)c(Nc3ccc4c(n3)NC(=O)C(C)(C)O4)n2)cc(OC)c1OC [R406 (free base)]	1.11	0.977	0.105	1.45	0.999	0.306	0.853	1.01	0.279	1.11	1.05	0.905	0.709	1.02	0.999	0.503	1.07	0.832
COc1ccc(S(=O)(=O)N(C(C)=O)c2ccccc2/C=C/c2cc[n+]([O-])cc2)cc1	1.27	0.254	0.0869	1.95	0.563	0.127	1.26	0.509	0.156	0.73	1.38	0.602	1.06	1.2	0.718	0.972	1.34	1.06
CCCS(=O)(=O)Nc1ccc(F)c(C(=O)c2c[nH]c3ncc(Cl)cc23)c1F	1.48	1.75	1.3	1.38	1.33	1.09	1.33	1.64	1.09	0.996	0.999	0.97	1.03	0.968	0.951	0.948	0.96	0.975
O=C(NOCC1CC1)c1ccc(F)c(F)c1Nc1ccc(I)cc1Cl	1.33	1.63	0.743	1.39	1.16	0.511	1.36	1.35	0.575	0.911	0.999	1.02	0.907	0.963	1.02	0.954	0.985	0.958
CN1CCC(Nc2nc(Nc3ccc(Oc4ccccc4)cc3)c3c(=O)[nH]cc(Br)c3n2)CC1	1.13	1.35	-0.185	0.662	0.379	-0.178	0.638	0.538	-0.198	0.591	0.531	0.00751	0.565	0.389	0.182	0.698	0.596	0.444
Cc1nc(Nc2cnn(C3CCNCC3)c2)nc2c1N(C)C(=O)c1cc3ccccc3cc1N2C	1.17	1.28	0.417	1.39	1.25	0.43	1.34	1.53	0.522	0.948	0.898	0.836	0.997	0.968	0.826	0.989	0.897	0.831
COCC(=O)NC/C=C/c1ccc2ncnc(Nc3ccc(Oc4ccc(C)nc4)c(C)c3)c2c1	1.5	1.78	1.29	1.4	1.33	1.04	1.19	1.43	1.08	0.96	1	0.935	1.02	0.977	0.949	0.995	0.895	0.931
COc1nccc(-c2c(-c3ccc(F)cc3)ncn2C2CCC(O)CC2)n1 (stereo not given)	2.05	2.98	2.05	1.4	1.22	1.22	1.37	1.36	1.33	0.837	0.823	0.684	0.86	0.817	0.74	1.19	1.04	1.04
COc1ccc(-c2nc(N3CCOCC3)c3sc(CN(C)c4ncc(C(=O)NO)cn4)cc3n2)cn1	-0.0209	-0.0612	-0.147	0.0223	-0.00723	-0.161	-0.0404	-0.0672	-0.124	1.04	1.03	0.886	1.1	1.03	0.971	1.01	1.01	0.9
COc1cc2ncnc(Nc3ccc(F)c(Cl)c3)c2cc1OCCCN1CCOCC1 [Gefitinib (Iressa)]	1.39	1.06	1.16	1.51	1.25	1.35	1.26	1.1	1.19	0.979	1	0.629	0.993	0.918	0.686	0.999	0.921	0.756
Cc1cc(Nc2cc(N3CCN(C)CC3)nc(/C=C/c3ccccc3)n2)n[nH]1	1.29	0.949	0.386	0.604	0.742	0.362	1.18	0.773	0.379	1.05	0.969	0.819	1.03	0.895	0.857	1.02	0.857	0.719
O=C(Cc1ccc(-c2ccc(OCCN3CCOCC3)cc2)cn1)NCc1ccccc1	0.342	0.077	0.0548	0.398	0.107	0.114	0.367	0.0587	0.0692	1.22	1.21	1.09	1.2	1.23	0.998	1.19	1.16	0.652
CCc1cc(Nc2nccc(-c3c(-c4ccc(OC)c(C(=O)Nc5c(F)cccc5F)c4)nc4ccccn34)n2)c(OC)cc1N1CCC(N2CCN(S(C)(=O)=O)CC2)CC1	0.957	1.44	0.855	1.1	1.2	0.874	1.41	1.37	0.833	0.907	0.881	0.844	0.924	0.842	0.785	0.936	0.846	0.773
CNC(=O)c1cc(COc2nnc(Nc3ccc(Cl)cc3)c3ccoc23)ccn1 [Telatinib]	0.828	1.01	0.816	0.948	1.31	0.748	1.14	1.05	0.672	0.989	0.928	1.09	1.07	1.02	1.16	1.07	1.03	1.03
CNC(=O)c1ccc(N2C(=S)N(c3ccc(C#N)c(C(F)(F)F)c3)C(=O)C2(C)C)cc1F [MDV3100 (Enzalutamide)]	1.22	1.1	1.1	0.896	1.19	1.08	1.12	1.12	0.99	1.09	1.03	0.94	0.997	0.998	0.963	0.961	1.01	0.985
COc1cc(N2CCC(N)CC2)ccc1Nc1ncc(Cl)c(-c2c[nH]c3ccccc23)n1	1.1	1.31	-0.181	1.26	1.18	-0.12	1.46	1.13	-0.198	1.01	0.892	0.515	1.12	1.01	0.575	0.955	0.956	0.442
COc1cc2nccc(Oc3ccc(NC(=O)C4(C(=O)Nc5ccc(F)cc5)CC4)cc3)c2cc1OC [Cabozantinib malate (XL184)]	1.3	1.64	0.529	1.47	1.36	0.606	1.29	1.37	0.634	1.03	0.94	0.897	1.05	1.06	0.911	0.973	0.97	0.836

Reformatted: 2 of the compounds above
SMILES | cell viability ([1]; 0.05 µM) | cell viability ([1]; 0.5 µM) | cell viability ([1]; 5 µM) | cell viability ([2]; 0.05 µM) | cell viability ([2]; 0.5 µM) | cell viability ([2]; 5 µM) | cell viability ([3]; 0.05 µM) | cell viability ([3]; 0.5 µM) | cell viability ([3]; 5 µM) | cell viability ([4]; 0.05 µM) | cell viability ([4]; 0.5 µM) | cell viability ([4]; 5 µM) | cell viability ([5]; 0.05 µM) | cell viability ([5]; 0.5 µM) | cell viability ([5]; 5 µM) | cell viability ([6]; 0.05 µM) | cell viability ([6]; 0.5 µM) | cell viability ([6]; 5 µM)
Cc1cnc(NC(=O)Nc2cc(Br)c(C)cc2OC[C@@H]2CNCCO2)cn1 | 1.18 | 1.23 | 0.115 | 1.27 | 1.1 | 0.292 | 1.29 | 1.26 | 0.164 | 1.01 | 1.13 | 1.12 | 1.04 | 1.06 | 1.14 | 1.05 | 1.14 | 1.05
CN1CCC(Nc2nc(Nc3ccc(Oc4ccccc4)cc3)c3c(=O)[nH]cc(Br)c3n2)CC1 | 1.13 | 1.35 | -0.185 | 0.662 | 0.379 | -0.178 | 0.638 | 0.538 | -0.198 | 0.591 | 0.531 | 0.00751 | 0.565 | 0.389 | 0.182 | 0.698 | 0.596 | 0.444
